A short description of this data set: general procedure: Fmoc solid-phase peptide synthesis; 2-chlorotrityl chloride resin (2-Cl-Trt, 0.5 mmol/g). As to conditions: whole synthesis; for final HPLC purity: area integration of the chromatogram; for final HPLC purity / isolated yield: scale of the general procedure 0.5 mmol; for isolated yield: based on 0.5 mmol of 2-Cl-Trt resin.

Some peptides are written in HELM: one residue between dots, names in brackets for other building blocks, links after the first $.

“PEPTIDE1{[6-methylheptanoyl].[Dab].T.[Dap(CH2SO3H)].[Dab].[Dab].[dF].T.[Dab].[Dab].T}$PEPTIDE1,PEPTIDE1,5:R3-11:R2$$$V2.0”: the isolated mass is 240 mg, the “final HPLC purity” value is on record as above 99.0% and the isolated yield is 38.2%.
Take “PEPTIDE1{[6-methylheptanoyl].[Dab(CH2SO3H)].T.[dS].[Dab].[Dab].[dF].T.[Dab].[Dab].T}$PEPTIDE1,PEPTIDE1,5:R3-11:R2$$$V2.0”: the isolated mass is 245 mg, the “final HPLC purity” value is listed as above 99.0% and the isolated yield amounted to 38.9%.
For “PEPTIDE1{[6-methylheptanoyl].[Dab].T.[dS].[Dab].[Dab].[dF].T.[Dab].[Dab].[Thr(CH2SO3H)]}$PEPTIDE1,PEPTIDE1,5:R3-11:R2$$$V2.0”, the isolated mass was 250 mg, the “final HPLC purity” value is listed as above 99.0% and the isolated yield was found to be 39.7%.
Turning to “PEPTIDE1{[Nonanoyl].[Dab].T.[D-Orn].[Dab].[Dab].[dF].L.[Dab].[Dab].T}$PEPTIDE1,PEPTIDE1,5:R3-11:R2$$$V2.0”, the “final HPLC purity” value is given as above 99.0% and the isolated yield stood at 41.9%. Under “scale 0.5 mmol”, this substance returned an isolated mass of 255 mg.
In the case of “PEPTIDE1{[6MeHep].[Dab].T.[Dap].[Dab].[Dab(CH2SO3H)].[dF].T.[Dab].[Dab].T}$PEPTIDE1,PEPTIDE1,5:R3-11:R2$$$V2.0”, the isolated mass is 248 mg, the “final HPLC purity” value is recorded as above 99.0% and the isolated yield is listed as 39.4%.
The like results for “PEPTIDE1{[6-methylheptanoyl].[Dab].T.[Dap].[Dab].[Dab].[dF].[Thr(CH2SO3H)].[Dab].[Dab].T}$PEPTIDE1,PEPTIDE1,5:R3-11:R2$$$V2.0” were, in that order, 248 mg, above 99.0% and 39.4%.
The corresponding values for “PEPTIDE1{[6MeHep].[Dab(CH2SO3H)].T.[Dap].[Dab].[Dab].[dF].T.[Dab].[Dab].T}$PEPTIDE1,PEPTIDE1,5:R3-11:R2$$$V2.0” are 245 mg, above 99.0% and 38.9%.
The corresponding values for “PEPTIDE1{[6-methylheptanoyl].[Dab].T.[dS].[Dab].[Dab(CH2SO3H)].[dF].T.[Dab].[Dab].T}$PEPTIDE1,PEPTIDE1,5:R3-11:R2$$$V2.0” are 248 mg, above 99.0% and 39.4%.
As for “PEPTIDE1{[6-methylheptanoyl].[Dab].[Thr(CH2SO3H)].[dS].[Dab].[Dab].[dF].T.[Dab].[Dab].T}$PEPTIDE1,PEPTIDE1,5:R3-11:R2$$$V2.0”, the isolated mass was 245 mg, the “final HPLC purity” value is recorded as above 99.0% and the isolated yield is 38.9%.
The like results for “PEPTIDE1{[6-methylheptanoyl].[Dab].T.[Dap].[Dab].[Dab].[dF].T.[Dab].[Dab].[Thr(CH2SO3H)]}$PEPTIDE1,PEPTIDE1,5:R3-11:R2$$$V2.0” were, in that order, 250 mg, above 99.0% and 39.7%.
The like results for “PEPTIDE1{[6MeHep].[Dab].T.[Dap].[Dab].[Dab].[dF].T.[Dab(CH2SO3H)].[Dab].T}$PEPTIDE1,PEPTIDE1,5:R3-11:R2$$$V2.0” were, in that order, 250 mg, above 99.0% and 39.7%.
The like results for “PEPTIDE1{[6-methylheptanoyl].[Dab].T.[dS].[Dab].[Dab].[dF].T.[Dab].[Dab(CH2SO3H)].T}$PEPTIDE1,PEPTIDE1,5:R3-11:R2$$$V2.0” were, in that order, 260 mg, above 99.0% and 41.3%.
“PEPTIDE1{[6-methylheptanoyl].[Dab].T.[dS].[Dab].[Dab].[dF].T.[Dab(CH2SO3H)].[Dab].T}$PEPTIDE1,PEPTIDE1,5:R3-11:R2$$$V2.0”: the isolated mass worked out at 250 mg, the “final HPLC purity” value is on record as above 99.0% and the isolated yield stood at 39.7%.
With “PEPTIDE1{[6-methylheptanoyl].[Dab].T.[dS].[Dab].[Dab].[dF].[Thr(CH2SO3H)].[Dab].[Dab].T}$PEPTIDE1,PEPTIDE1,5:R3-11:R2$$$V2.0”, the isolated mass was found to be 248 mg, the “final HPLC purity” value was above 99.0% and the isolated yield is listed as 39.4%.
Regarding “PEPTIDE1{[6-methylheptanoyl].[Dab].T.[dS].[Dab].[Dab].[D-Phe(4-CH2SO3H)].T.[Dab].[Dab].T}$PEPTIDE1,PEPTIDE1,5:R3-11:R2$$$V2.0”, the isolated mass was found to be 260 mg, the “final HPLC purity” value is listed as above 99.0% and the isolated yield stood at 41.3%.
Regarding “PEPTIDE1{[6-methylheptanoyl].[Dab].[Thr(CH2SO3H)].[Dap].[Dab].[Dab].[dF].T.[Dab].[Dab].T}$PEPTIDE1,PEPTIDE1,5:R3-11:R2$$$V2.0”, the isolated mass worked out at 245 mg, the “final HPLC purity” value is above 99.0% and the isolated yield was found to be 38.9%.
The corresponding values for “PEPTIDE1{[6MeHep].[Dab].T.[Dap].[Dab].[Dab].[dF].T.[Dab].[Dab(CH2SO3H)].T}$PEPTIDE1,PEPTIDE1,5:R3-11:R2$$$V2.0” are 260 mg, above 99.0% and 41.3%.
With “PEPTIDE1{[6MeHep].[Dab].T.[Dap].[Dab].[Dab].[D-Phe(4-CH2SO3H)].T.[Dab].[Dab].T}$PEPTIDE1,PEPTIDE1,5:R3-11:R2$$$V2.0”, the isolated mass is reported as 260 mg, the “final HPLC purity” value is above 99.0% and the isolated yield came out at 41.3%.
Consider “PEPTIDE1{[6-methylheptanoyl].[Dab].T.[D-Ser(CH2SO3H)].[Dab].[Dab].[dF].T.[Dab].[Dab].T}$PEPTIDE1,PEPTIDE1,5:R3-11:R2$$$V2.0”, for which the isolated mass came out at 240 mg, the “final HPLC purity” value is recorded as above 99.0% and the isolated yield is 38.1%.
